Reference: the supplement of paper PMC10849652
The list shows a part of the results.

By UniProt entry, the sequences of proteins in these tests, tags left out. Where a name states a change or a piece, a line headed by the entry shows the natural chain unless it says otherwise.
UniProt Q15208: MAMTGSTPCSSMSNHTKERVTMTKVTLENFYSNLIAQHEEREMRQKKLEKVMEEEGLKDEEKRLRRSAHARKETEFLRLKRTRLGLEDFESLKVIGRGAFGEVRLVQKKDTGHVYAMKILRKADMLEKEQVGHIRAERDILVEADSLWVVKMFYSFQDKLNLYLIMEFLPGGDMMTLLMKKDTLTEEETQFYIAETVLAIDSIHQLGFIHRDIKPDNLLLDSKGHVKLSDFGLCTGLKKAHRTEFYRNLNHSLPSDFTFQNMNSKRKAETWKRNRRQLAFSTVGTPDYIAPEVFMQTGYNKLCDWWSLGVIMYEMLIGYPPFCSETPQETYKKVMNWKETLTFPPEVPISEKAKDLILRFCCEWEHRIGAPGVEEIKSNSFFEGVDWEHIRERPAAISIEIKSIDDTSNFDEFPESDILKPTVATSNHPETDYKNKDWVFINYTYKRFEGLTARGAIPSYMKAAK
UniProt Q86TM6, whole entry, looked up: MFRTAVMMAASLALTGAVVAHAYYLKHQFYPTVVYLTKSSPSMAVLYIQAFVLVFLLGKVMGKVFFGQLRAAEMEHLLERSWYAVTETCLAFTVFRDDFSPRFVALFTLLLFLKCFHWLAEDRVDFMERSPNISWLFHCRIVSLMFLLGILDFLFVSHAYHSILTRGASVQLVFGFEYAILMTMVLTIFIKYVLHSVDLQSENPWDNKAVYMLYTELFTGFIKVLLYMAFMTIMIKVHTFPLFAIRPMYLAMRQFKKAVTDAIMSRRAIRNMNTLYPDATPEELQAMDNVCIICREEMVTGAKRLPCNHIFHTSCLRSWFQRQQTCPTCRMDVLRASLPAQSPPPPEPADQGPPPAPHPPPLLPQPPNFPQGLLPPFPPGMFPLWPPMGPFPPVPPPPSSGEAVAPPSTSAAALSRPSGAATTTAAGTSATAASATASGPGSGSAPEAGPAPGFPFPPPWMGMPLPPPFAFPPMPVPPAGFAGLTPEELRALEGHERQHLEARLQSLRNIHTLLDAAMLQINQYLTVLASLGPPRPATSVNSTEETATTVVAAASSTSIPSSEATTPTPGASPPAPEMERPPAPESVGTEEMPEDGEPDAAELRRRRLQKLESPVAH
UniProt O00506, whole entry, looked up: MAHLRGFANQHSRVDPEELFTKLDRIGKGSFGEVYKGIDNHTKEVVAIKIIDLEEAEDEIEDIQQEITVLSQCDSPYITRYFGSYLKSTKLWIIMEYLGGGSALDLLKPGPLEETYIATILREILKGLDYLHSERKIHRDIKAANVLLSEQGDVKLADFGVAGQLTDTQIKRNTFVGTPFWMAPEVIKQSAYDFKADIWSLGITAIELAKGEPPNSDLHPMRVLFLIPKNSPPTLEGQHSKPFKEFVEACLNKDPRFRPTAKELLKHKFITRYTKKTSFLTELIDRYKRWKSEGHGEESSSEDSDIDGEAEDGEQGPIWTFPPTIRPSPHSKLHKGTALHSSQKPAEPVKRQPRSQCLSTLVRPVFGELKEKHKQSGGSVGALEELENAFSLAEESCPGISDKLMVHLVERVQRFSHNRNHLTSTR
UniProt Q9P289: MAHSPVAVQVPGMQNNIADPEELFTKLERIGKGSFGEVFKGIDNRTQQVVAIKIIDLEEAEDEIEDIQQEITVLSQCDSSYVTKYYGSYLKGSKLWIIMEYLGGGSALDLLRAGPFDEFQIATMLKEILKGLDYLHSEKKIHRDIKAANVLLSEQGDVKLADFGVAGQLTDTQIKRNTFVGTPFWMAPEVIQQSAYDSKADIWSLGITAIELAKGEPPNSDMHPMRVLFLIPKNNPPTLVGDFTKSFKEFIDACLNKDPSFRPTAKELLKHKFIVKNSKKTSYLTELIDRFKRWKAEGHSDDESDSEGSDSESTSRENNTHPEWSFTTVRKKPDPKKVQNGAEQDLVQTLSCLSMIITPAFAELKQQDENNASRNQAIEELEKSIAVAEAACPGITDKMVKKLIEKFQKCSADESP
UniProt P61764, whole entry, looked up: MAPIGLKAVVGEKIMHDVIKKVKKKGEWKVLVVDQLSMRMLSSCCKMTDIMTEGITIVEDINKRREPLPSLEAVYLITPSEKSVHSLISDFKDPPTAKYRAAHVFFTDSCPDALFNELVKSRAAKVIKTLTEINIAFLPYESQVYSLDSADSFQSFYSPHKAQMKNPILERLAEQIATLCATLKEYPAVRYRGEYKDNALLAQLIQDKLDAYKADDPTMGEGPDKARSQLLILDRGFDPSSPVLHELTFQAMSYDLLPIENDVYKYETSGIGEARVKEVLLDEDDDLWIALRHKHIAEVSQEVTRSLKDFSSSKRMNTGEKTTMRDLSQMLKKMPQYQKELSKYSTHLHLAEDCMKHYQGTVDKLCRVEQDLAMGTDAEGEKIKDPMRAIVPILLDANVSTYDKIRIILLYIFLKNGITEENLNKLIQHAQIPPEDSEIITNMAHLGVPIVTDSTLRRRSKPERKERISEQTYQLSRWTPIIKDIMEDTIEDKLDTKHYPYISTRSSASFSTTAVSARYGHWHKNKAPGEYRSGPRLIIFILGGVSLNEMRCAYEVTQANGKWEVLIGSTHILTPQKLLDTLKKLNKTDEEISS
UniProt Q9ULQ0: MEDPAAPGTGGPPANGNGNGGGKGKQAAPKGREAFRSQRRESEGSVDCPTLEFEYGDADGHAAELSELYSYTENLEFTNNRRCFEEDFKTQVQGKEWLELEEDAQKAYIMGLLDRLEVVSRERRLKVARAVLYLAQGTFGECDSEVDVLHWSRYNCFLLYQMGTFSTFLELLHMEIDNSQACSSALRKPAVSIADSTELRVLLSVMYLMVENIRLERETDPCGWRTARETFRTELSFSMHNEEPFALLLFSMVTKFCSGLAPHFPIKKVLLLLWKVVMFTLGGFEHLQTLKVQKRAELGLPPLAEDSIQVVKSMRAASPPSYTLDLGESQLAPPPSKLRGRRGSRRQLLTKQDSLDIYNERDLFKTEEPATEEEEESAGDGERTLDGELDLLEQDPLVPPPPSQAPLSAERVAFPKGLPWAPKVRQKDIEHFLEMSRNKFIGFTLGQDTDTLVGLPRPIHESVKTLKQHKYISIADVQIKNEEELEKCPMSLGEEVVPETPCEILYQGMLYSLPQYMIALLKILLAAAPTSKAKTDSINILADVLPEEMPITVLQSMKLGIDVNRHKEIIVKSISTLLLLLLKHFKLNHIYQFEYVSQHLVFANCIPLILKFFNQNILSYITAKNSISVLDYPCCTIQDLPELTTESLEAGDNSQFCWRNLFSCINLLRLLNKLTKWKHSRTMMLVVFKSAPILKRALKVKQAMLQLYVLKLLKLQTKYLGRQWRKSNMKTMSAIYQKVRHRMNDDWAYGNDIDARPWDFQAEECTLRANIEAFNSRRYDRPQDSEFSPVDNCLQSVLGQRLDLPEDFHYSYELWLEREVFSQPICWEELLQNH
UniProt O15260: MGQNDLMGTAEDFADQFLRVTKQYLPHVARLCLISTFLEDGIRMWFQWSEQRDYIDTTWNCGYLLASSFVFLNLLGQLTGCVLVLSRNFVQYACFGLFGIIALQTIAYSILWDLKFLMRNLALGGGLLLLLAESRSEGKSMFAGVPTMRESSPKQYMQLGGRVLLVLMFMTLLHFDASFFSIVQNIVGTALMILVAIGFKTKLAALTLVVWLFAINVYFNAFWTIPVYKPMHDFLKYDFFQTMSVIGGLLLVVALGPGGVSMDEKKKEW
UniProt Q9Y5B9, whole entry, looked up: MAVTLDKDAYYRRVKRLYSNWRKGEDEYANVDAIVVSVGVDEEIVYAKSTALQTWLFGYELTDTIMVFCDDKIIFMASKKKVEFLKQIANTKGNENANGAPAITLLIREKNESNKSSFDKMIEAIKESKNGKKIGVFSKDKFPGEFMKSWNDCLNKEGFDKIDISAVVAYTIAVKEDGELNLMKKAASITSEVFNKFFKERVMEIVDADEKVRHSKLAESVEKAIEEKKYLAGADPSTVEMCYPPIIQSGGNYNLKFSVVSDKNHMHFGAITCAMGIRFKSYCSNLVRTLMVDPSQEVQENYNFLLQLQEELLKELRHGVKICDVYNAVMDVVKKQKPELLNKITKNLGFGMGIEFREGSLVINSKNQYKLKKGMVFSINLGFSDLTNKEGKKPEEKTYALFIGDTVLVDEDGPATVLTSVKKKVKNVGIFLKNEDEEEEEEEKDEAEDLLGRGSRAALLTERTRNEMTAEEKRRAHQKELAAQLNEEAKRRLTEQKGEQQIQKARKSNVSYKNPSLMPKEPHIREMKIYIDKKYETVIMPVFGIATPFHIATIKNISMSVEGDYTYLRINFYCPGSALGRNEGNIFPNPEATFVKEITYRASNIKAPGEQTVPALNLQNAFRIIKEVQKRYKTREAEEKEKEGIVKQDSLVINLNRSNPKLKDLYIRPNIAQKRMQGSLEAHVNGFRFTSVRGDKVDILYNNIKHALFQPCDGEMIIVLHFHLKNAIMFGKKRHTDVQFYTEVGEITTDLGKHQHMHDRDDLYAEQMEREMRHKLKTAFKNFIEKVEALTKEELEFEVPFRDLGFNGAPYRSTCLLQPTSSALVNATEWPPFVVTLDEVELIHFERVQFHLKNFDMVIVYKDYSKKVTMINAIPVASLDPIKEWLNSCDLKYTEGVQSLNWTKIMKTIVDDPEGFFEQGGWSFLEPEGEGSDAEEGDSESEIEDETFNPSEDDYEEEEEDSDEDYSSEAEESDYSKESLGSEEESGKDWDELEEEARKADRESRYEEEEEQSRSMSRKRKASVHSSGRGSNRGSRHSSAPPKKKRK
UniProt Q9NRL3: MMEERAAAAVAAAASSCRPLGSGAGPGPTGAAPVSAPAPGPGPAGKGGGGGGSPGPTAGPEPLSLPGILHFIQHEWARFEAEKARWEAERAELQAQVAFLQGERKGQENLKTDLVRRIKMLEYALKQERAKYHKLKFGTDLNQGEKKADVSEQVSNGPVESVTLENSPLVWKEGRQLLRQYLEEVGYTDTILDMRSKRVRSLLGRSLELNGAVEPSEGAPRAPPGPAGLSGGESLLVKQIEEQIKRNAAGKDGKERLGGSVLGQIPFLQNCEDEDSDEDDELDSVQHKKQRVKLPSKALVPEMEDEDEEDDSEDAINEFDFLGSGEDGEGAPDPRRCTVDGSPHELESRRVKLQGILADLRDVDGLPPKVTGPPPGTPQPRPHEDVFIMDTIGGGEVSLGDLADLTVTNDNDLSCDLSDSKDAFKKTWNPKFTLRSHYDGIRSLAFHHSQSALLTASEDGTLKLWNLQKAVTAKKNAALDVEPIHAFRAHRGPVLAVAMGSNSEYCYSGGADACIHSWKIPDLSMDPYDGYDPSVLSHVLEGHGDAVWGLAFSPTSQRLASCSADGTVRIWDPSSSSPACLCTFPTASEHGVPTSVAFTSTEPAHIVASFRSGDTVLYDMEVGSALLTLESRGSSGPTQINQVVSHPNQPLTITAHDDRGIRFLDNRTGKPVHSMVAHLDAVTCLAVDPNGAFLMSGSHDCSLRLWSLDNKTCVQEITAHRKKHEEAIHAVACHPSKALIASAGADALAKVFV
UniProt Q9UNK0: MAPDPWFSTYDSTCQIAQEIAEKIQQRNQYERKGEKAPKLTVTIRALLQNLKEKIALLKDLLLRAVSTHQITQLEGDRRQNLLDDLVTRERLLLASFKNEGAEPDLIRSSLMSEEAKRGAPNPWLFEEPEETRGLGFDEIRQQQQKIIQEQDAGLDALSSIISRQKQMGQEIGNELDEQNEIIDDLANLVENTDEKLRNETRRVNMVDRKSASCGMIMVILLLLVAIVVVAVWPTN
UniProt P51687: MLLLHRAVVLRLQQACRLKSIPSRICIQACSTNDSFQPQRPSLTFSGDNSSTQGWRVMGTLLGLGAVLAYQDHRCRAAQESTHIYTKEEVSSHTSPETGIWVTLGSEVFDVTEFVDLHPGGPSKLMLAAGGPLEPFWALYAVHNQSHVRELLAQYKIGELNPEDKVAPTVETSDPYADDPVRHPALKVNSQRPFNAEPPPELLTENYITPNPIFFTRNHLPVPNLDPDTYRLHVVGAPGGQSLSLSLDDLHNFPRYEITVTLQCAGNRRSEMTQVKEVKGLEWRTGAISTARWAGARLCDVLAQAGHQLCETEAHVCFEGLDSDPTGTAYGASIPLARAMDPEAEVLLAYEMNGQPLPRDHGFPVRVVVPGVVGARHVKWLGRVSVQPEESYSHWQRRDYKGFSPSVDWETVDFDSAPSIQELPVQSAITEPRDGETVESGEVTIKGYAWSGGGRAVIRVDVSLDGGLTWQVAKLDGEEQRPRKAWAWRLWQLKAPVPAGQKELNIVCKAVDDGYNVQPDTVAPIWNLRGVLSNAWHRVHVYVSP
UniProt P56962: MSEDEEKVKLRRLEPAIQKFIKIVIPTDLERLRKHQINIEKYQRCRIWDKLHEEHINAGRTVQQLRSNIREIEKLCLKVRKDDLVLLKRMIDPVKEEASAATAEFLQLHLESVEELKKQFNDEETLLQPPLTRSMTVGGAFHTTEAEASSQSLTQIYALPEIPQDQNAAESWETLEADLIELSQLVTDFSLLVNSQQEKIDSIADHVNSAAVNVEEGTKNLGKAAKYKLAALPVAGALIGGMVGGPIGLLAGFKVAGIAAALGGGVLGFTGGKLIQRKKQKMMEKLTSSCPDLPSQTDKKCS

Each target was assayed with Cc1cccc(CC(=O)N2CCc3c2ccc(-c2cn(C)c4ncnc(N)c24)c3F)n1 (assay: log2 fold change, soluble protein after heating vs DMSO (PISA); higher = thermal stabilisation; K562 lysate, 10 uM; active = over 0.2 and 3.5 SD of the protein, either way, in both replicates (recomputed)).
Outline: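 K562 pellets were dounce-homogenised in PBS pH 7.4 containing 1 mM MgCl2, and the crude extract, at 1 mg/mL protein, was exposed to 10 μM compound for 30 min. Aliquots were heated for 3 min across 48°C-58°C, pooled, brought to 0.5% NP-40 at 4°C and spun at 21,000xg for 90 min, with the supernatant taken as soluble protein. TMTpro 16plex LC-MS/MS with equalised channel sums quantified that protein. Values are log-two fold changes in thermal stability relative to solvent controls, taken from duplicates.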

log2 fold change, inactive:
STK38 (UniProt Q15208) -0.071
SYVN1 (UniProt Q86TM6) 0.02
STK25 (UniProt O00506) 0.005
STK26 (UniProt Q9P289) -0.004
STT3A (UniProt P46977) 0.041
STRADA (UniProt Q7RTN6) -0.076
STXBP1 (UniProt P61764) 0.082
STRIP2 (UniProt Q9ULQ0) -0.03
SURF4 (UniProt O15260) 0.14
SUPT16H (UniProt Q9Y5B9) -0.011
STRN4 isoform 3 (UniProt Q9NRL3) 0.068
SYTL4 (UniProt Q96C24) 0.036
STX8 (UniProt Q9UNK0) 0.003
SUOX (UniProt P51687) 0.008
STX7 (UniProt O15400) 0.002
STX17 (UniProt P56962) 0.062

Taken from above (two entries):
log2 fold change, inactive:
STT3A (UniProt P46977) 0.041
STRADA (UniProt Q7RTN6) -0.076
